In paper doi:10.1101/2020.04.29.068866:
No constants are given. Whether binding was seen depends on the method and setting. In cells and extracts the contact can be indirect. Some entries that bind do so weakly or less than the wild type.

Biological target: T1, wild type Drosophila Orc6 (in vitro transcription/translation) (Drosophila) (UniProt Q9Y1B2)
T1 sequence: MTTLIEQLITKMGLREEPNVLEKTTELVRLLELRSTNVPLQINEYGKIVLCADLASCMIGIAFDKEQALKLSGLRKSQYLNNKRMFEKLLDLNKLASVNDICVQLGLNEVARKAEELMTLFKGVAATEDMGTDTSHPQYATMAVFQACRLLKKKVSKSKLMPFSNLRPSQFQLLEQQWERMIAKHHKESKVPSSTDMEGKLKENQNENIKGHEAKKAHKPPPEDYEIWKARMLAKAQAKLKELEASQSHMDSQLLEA
Test: pull-down

binding: binds
B1: Orc3 subunit of ORC (in vitro transcription/translation) (protein, UniProt Q7K2L1 1-721)
chain: MDPTISVSKGCFVYKNGATRAGKKAASKRKRPAAESSSLLGKEVVQQPFYEEYRKAWNQINDHIADLQHRSYARTLEQLVDFVVGQAERDTPDEVLPTAALLTGINQPDHLSQFTALTQRLHAQRAAMVCVLQSRDCATLKAAVETLVFGLVEDNAEVEQMEDEDEDEDGAERDRKRLRRSQCTMKQLKSWYTNNFDSEQKRRQLVVILPDFECFNASVLQDLILILSAHCGSLPFVLVLGVATAMTAVHGTLPYHVSSKIRLRVFQTQAAPTGLNEVLDKVLLSPKYAFHLSGKTFKFLTHIFLYYDFSIHGFIQGFKYCLMEHFFGGNAFALCTDYSKALGRIKQLTHEDMETIRRLPSFRPYVEQINDCKRIIAVLTDDDYLKKKLPQLLRDCLLHFLLFRCSLEFLTELVGDLPRCPLGKLRRELYVNCLNRAIISTPEYKECLQMLSFLSKDEFVAKVNRALERTEQFLVEEIAPLELGEACTAVLRPKLEAIRLAVDEVVKATMATITTTSPNETRQATDHLTPVASRQELKDQLLQRSKEDKMRHQLNTPTTQFGRALQKTLQLIETQIVQDHLRALQDAPPIHELFVFSDIATVRRNIIGAPRAALHTALNNPHFYMQCKCCELQDQSLLVGTLPDLSVVYKLHLECGRMINLFDWLQAFRSVVSDSDHEEVAQEQIDPQIQARFTRAVAELQFLGYIKMSKRKTDHATRLTW
